At least one structure is not confirmed: it was looked up by name or label, or the drawing left a doubt.
Tested on: E. coli strain D22 carrying plasmid pNU305 (ampC and ampR genes from Citrobacter freundii, envA-)
Assay: β-lactamase induction screen (nitrocefin, OD 490 nm)
Format: cell-based
Details: lowest concentration at which β-lactamase induction begins to increase; average over trials
Experimental: Screening Strain: E. coli strain D22 carrying plasmid pNU305 which contains the ampC and ampR genes from Citrobacter freundii, the envA-allele, a colEI origin of replication, and a tetracycline resistance determinant was grown in Luria Broth (LB; 5 g yeast extract, 10 g tryptone, and 10 g sodium chloride per liter of purified water) supplemented with E salts (400 μl E salts per 100 ml LB; the E salts contained-10 g magnesium sulfate heptahydrate, 100 g citric acidmonohydrate, 500 g anhydrous dibasic potassium phosphate, and 175 g of monosodium monoammonium phosphate tetrahydrate per liter of purified water).
Reaction Buffer: Nitrocefin was dissolved in dimethylsulfoxide (DMSO) to a concentration of 25 mg/ml and stored in 1 ml aliquots at −80° C. […]
Assay: 10 μl aliquots were transferred from each well to a second microtiter plate, using a Quadra 96 Model 320 robot (TomTec, Hamden, Conn.). […] The OD of the samples was immediately read at […] in a plate reader (Biorad, Model 3550) to obtain zero point β-lactamase levels. The OD was measured again after incubating the plates at room temperature for 90 minutes (room temperature near 30° C.) or 120 minutes (room temperature below 30° C.). […]

In the case of CO[C@H]1/C=C/O[C@@]2(C)Oc3c(C)c(O)c4c(O)c(c(/C=N/N5CCN(C)CC5)c(O)c4c3C2=O)NC(=O)/C(C)=C\C=C\[C@H](C)[C@H](O)[C@@H](C)[C@@H](O)[C@@H](C)[C@H](OC(C)=O)[C@@H]1C [Rifampicin], the “[Induction] (limit of detection of β-lactamase induction)” value is reported as “none”.

— patent US6534278B1, “Screening for antibiotics” (priority 1997, dated 2003)
